The text below walks through data of PMC7434933.

Experiment [1] concerns the target T1, ARF19 (Arabidopsis thaliana) (UniProt Q8RYC8).
T1 sequence: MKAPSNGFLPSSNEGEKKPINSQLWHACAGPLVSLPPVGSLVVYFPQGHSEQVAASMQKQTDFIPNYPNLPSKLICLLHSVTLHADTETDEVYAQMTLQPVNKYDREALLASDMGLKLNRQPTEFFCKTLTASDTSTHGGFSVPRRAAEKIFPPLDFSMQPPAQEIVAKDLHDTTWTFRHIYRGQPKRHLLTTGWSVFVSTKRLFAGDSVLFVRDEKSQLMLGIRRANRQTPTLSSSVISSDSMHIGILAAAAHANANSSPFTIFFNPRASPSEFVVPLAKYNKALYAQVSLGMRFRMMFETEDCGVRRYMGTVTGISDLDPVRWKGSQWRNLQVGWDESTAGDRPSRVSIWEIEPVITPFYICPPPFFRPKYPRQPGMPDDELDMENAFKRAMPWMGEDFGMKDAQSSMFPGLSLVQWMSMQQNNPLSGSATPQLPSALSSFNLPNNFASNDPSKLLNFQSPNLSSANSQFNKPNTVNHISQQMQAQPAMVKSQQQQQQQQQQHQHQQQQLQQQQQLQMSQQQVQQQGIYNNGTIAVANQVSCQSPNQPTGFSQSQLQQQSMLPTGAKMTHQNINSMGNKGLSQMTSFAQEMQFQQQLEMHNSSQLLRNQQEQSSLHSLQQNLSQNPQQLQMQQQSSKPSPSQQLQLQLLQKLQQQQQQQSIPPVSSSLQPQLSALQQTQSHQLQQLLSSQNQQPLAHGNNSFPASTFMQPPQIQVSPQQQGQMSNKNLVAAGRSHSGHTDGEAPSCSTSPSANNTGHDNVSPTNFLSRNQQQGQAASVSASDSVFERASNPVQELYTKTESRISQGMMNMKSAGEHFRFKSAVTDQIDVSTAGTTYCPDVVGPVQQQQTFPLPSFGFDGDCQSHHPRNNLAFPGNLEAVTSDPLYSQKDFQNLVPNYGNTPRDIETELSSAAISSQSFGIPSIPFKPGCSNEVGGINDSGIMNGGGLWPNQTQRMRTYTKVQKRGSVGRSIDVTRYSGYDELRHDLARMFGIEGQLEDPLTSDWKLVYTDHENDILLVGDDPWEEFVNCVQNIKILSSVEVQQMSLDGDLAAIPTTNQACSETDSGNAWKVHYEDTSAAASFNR
Kind of experiment: two-hybrid; IAA15 in pGAD424 (AD), ARF7 or ARF19 in pAS2-1 (BD), co-transformed into yeast strain pJ69-4A; growth at 30°C; HIS3 reporter on SD -Leu/-Trp/-His with 25 mM 3-AT.

Experiment [2] concerns the target T2, ARF7 (Arabidopsis thaliana) (UniProt P93022).
T2 sequence: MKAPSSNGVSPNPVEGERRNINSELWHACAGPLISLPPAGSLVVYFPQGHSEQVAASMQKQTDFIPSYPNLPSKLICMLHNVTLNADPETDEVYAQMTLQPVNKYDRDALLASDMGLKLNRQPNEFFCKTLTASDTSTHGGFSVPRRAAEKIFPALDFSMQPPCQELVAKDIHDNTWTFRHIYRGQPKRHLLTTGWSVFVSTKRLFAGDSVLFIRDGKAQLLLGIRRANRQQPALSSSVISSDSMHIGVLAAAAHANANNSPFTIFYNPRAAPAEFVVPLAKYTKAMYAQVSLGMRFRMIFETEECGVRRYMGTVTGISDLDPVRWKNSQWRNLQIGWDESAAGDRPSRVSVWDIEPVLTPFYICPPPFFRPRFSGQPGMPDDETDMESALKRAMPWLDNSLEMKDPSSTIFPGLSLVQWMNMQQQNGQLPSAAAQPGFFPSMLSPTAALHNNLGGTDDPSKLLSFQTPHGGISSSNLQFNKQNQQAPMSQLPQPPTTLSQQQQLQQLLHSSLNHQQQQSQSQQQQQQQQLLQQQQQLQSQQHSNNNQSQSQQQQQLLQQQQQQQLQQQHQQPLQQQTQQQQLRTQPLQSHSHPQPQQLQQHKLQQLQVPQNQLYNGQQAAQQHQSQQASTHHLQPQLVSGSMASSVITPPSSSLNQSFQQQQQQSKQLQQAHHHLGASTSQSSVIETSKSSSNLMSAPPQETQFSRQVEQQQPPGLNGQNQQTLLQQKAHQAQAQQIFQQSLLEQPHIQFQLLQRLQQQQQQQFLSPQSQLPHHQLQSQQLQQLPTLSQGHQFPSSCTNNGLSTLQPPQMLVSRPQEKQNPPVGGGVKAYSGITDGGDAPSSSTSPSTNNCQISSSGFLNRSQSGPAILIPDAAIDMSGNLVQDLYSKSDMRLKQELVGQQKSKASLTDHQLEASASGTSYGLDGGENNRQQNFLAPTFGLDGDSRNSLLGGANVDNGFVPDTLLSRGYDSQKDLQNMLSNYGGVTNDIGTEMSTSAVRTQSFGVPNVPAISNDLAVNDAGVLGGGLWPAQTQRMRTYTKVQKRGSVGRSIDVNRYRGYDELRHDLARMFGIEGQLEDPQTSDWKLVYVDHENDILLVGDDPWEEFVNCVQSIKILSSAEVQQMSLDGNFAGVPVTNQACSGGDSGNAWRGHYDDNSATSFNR
The description is as above.

Results are given in words; binding and its absence hold for the method and conditions named. Some binding calls cover weakened binding; strength is not graded here.

B1: IAA15 (protein, UniProt Q9C966 1-179)
chain: MSPEEYVRVWPDSGDLGGTELTLALPGTPTNASEGPKKFGNKRRFLETVDLKLGEAHENNYISSMVTNDQLVGWPPVATARKTVRRKYVKVALDGAAYLRKVDLGMYDCYGQLFTALENMFQGIITICRVTELERKGEFVATYEDKDGDLMLVGDVPWMMFVESCKRMRLMKTGDAIGL
B1: the binding result in experiment [1] and in experiment [2] was “binds” throughout.
